Patent US9234186B2, “Star-worm luciferase” (OLYMPUS CORPORATION, priority 2011, dated 2016)

Assay: Measurement of luminescence spectra of purified luciferase at various pHs
Assay type: biochemical

B1: star-worm luciferase: Novel luciferase cloned from star-worm Diplocladon sp. 1, amino acid sequence SEQ ID NO: 1 (protein, listed as Diplocladon sp.)
chain: MPNEIVLHGAKPRDPLDLGTAGSQLFRSLTQFSYLREALVDAHTEQVVSYADILENSCRLAICFEKYGLRQNSVIAVCSENSAIFFYPVIAALYMGIITATVNDNYTERELFDTLNISKPELVFCSKKAIKNLTQLKNHIDFIKKLVVLDSDEDIGEVESLANFMKRYSESVIDVRNFKPRDFDAKEQVALIMSSSGTTGLPKGVVLTHRNLSVRFVHCKDPLFGTRTVPSTSILSIVPFHHAFGMFTTLSYFIVGLRVILLKRFEEEFFLSTIEKYRIPTIVLAPPVMVFLAKSPLVDQYDVSSIREVATGGAPVGIEVAEAVAKRLKINGILQGYGLTETCCAVLITPHDHVKTGSTGKVAPYVQAKVVDLSTGKSLGPNKRGELCFKSEIIMKGYFNNIKATEEAIDKEGWLHSGDVGYYDEDGHFYVVDRLKELIKYKGYQVAPAELEWLLLQHPAIKDAGVTGVPDEAAGELPGACIVLEEGHSLTEQEVIEYVAERVSPTKRIRGGVVFVDDIPKGATGKLVRSELRRMLSQKKSKL
Question: For B1, which “maximum luminous wavelength range” value (over the entire pH range of 5.5 to 8.0) is on record?
Answer: The value was 557-562 nm.

Question: What about the maximum luminous wavelength (pH 5.5) of the same molecule?
Answer: Its maximum luminous wavelength is ~557 nm.

Question: And the maximum luminous wavelength (pH 6.0)?
Answer: Its maximum luminous wavelength is ~557 nm.

Question: What about the maximum luminous wavelength (pH 6.5) of the same molecule?
Answer: Its maximum luminous wavelength is ~557 nm.

Question: What about the maximum luminous wavelength (pH 7.0) of the same molecule?
Answer: The maximum luminous wavelength was ~557 nm.

Question: And the maximum luminous wavelength (pH 7.5)?
Answer: Its maximum luminous wavelength is “around 559 nm”.

Question: And the maximum luminous wavelength (pH 8.0)?
Answer: The maximum luminous wavelength was “around 562 nm”.

Question: And the “change of the maximum luminous wavelength” value (within the range of pH 5.5-8.0)?
Answer: Its value is ≤ 5 nm.
